LdMetRS: 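Methionyl-tRNA synthetase (putative), Leishmania donovani (UniProt E9BF75). Primary screen of methionyl-tRNA synthetase; the read-out is not stated. The test concentration is not given. Values are per cent inhibition. About 68,000 compounds were tested under these conditions; 0.035% (about 24) showed 50% or more at least once.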
Mtb heat-shock: 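Assay on Mycobacterium tuberculosis, filed only as a heat shock assay from Cornell; the read-out is not stated. The concentration is filed as 10 mM, unlikely as a test dose, so the dose is not known. Direction is inferred from retests: higher values go with stronger inhibition. Of about 69,000 compounds tested this way, about 930 (1.4%) reached 50% or more in at least one test.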

Chains of the proteins cited; added tags and fusions are not shown.
UniProt E9BF75, entry or part of it: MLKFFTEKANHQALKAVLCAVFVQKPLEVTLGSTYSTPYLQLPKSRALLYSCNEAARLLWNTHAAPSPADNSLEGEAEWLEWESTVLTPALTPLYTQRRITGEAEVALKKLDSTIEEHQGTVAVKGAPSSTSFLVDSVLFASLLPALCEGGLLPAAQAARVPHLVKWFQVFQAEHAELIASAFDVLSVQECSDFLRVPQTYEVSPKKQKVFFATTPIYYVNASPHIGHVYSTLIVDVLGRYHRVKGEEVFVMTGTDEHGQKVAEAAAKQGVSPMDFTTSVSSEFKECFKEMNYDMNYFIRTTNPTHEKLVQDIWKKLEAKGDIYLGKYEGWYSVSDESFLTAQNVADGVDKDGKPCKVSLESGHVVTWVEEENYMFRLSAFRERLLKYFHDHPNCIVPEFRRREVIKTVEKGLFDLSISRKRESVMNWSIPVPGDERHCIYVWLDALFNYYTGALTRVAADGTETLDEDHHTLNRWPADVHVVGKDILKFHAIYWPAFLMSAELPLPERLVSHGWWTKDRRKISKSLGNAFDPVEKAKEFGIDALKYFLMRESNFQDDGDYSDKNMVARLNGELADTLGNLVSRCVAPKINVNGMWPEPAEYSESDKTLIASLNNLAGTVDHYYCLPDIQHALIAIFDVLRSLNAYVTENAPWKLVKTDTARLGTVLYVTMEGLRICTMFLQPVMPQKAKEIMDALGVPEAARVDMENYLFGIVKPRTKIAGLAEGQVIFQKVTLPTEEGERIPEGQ

Results are percentages, as filed.
The record does not define 0% and 100%; most values in the screen are far below 50% and negative numbers occur (in some assays of this library far below -100).
This is an unselected part of the compounds tested.

{"compound": "CCc1ccc(-c2cn3c(C(=O)NCC(C)C(=O)NC)csc3n2)cc1", "stereo": "centres undefined", "LdMetRS": 6.137, "Mtb heat-shock": -31.67}
{"compound": "Cl.Cl.O=C(NCc1cncc2c1CCN(Cc1cccs1)C2)C1CC1", "Mtb heat-shock": 3.264}
{"compound": "CN(C)C(=O)c1cccc(C[S+]([O-])CC(=O)NC2CCCC2)c1", "stereo": "centres undefined", "LdMetRS": 1.375, "Mtb heat-shock": -3.07}
{"compound": "CCCC(=O)N(CCCN1CCOCC1)c1nc2c(F)cccc2s1.Cl", "Mtb heat-shock": -0.349}
{"compound": "C[C@@H]1CN(C(=O)CCCn2nnc(-c3ccc(F)cc3)n2)C[C@]1(C)O", "LdMetRS": 3.873, "Mtb heat-shock": -5.647}
{"compound": "CC(C(=O)N1CCCCC1)N1CCN(c2ncc(Cl)cn2)CC1", "stereo": "centres undefined", "LdMetRS": 14.25, "Mtb heat-shock": 7.126}
{"compound": "CC(c1nccs1)N(C)Cc1ccc(CCC(C)(C)O)cc1", "stereo": "centres undefined", "LdMetRS": 10.96, "Mtb heat-shock": -1.477}
{"compound": "CC(C)n1c(C(=O)N2CCCC2)nc2c1CCN(c1ncccn1)C2", "LdMetRS": 18.48, "Mtb heat-shock": -17.26}
{"compound": "O=C(O)c1ncccc1N1CCCCC1", "LdMetRS": 10.24, "Mtb heat-shock": -3.745}
{"compound": "Cc1ccc2cnn(CCC(=O)Nc3c(C)nn(C)c3C)c2c1", "LdMetRS": 9.449, "Mtb heat-shock": -16.98}
{"compound": "c1cc(CNCCc2cn3ccccc3n2)c2c(c1)OCCCO2", "LdMetRS": 9.115, "Mtb heat-shock": -18.13}
{"compound": "CCCc1nc(CNCC2CCCN2c2cccnn2)no1", "stereo": "centres undefined", "LdMetRS": 27.07, "Mtb heat-shock": 38.98}
{"compound": "Cc1nn(C)c2cn(C(C)C(=O)NCc3ccncc3)nc12", "stereo": "centres undefined", "LdMetRS": 4.271, "Mtb heat-shock": 2.237}
{"compound": "CC(C)Nc1ccc2nc(C3CCNCC3)nn2c1", "LdMetRS": 12.39, "Mtb heat-shock": 2.406}
{"compound": "Cl.O=C(NCCO)c1sc2ncccc2c1C1CNCCO1", "stereo": "centres undefined", "Mtb heat-shock": 2.882}
{"compound": "CCOCc1nn(C)c2c1CN(Cc1cccs1)CC2.O=C(O)C(F)(F)F", "Mtb heat-shock": 29.88}
{"compound": "CCCOC(=O)N1CCCn2nc(C(=O)Nc3ccccc3)cc2C1", "LdMetRS": 11.26, "Mtb heat-shock": -15.16}
{"compound": "Cc1cccnc1N1CC2(CCN(Cc3cnn(C)c3)C2)C1.O=C(O)C(F)(F)F.O=C(O)C(F)(F)F", "Mtb heat-shock": -17.77}
{"compound": "CCC(C)(NC(=O)CCN1CCOC1=O)C(=O)OC", "stereo": "centres undefined", "LdMetRS": 12.93, "Mtb heat-shock": -3.842}
{"compound": "Cc1nc(CN2C[C@@H]3CN(C(=O)c4ccoc4C)C[C@@H]3C2)cs1", "LdMetRS": 15.95}
{"compound": "CN(C)Cc1cc(C2CCCCN2S(=O)(=O)Cc2ccccc2)nn1C", "stereo": "centres undefined", "LdMetRS": 13.92}
{"compound": "CCS(=O)(=O)N(C)C1CCN(C(=O)c2ccc(Cl)cc2)CC1", "LdMetRS": 20.88, "Mtb heat-shock": -9.422}
{"compound": "O=C(O)C(F)(F)F.[H][C@@]12C[C@@H](C(=O)NC(C)C)C[C@@]1([H])N(CC1CC1)CCO2", "Mtb heat-shock": -5.963}
{"compound": "O=C(CCn1ccc2ccc(Cl)cc21)NCc1ccc(C(=O)O)cc1", "LdMetRS": 12.83, "Mtb heat-shock": -23.08}
{"compound": "CO[C@@H]1CCN(S(=O)(=O)c2cn(C)cn2)[C@H]1Cc1ccccc1", "LdMetRS": 15.31, "Mtb heat-shock": 2.926}
{"compound": "Cc1nc2cc(C3CCN(Cc4cccc(F)c4F)C3)nn2c(O)c1C", "stereo": "centres undefined", "LdMetRS": 12.67}
{"compound": "O=C(O)C(F)(F)F.[H][C@@]12CNC(=O)[C@H](C)[C@]1([H])CN(CCc1ccccc1)C2", "Mtb heat-shock": -3.474}
{"compound": "CCN1CC2(CC1=O)CN(C(=O)c1ccco1)CCN(C(=O)N(C)C)C2", "stereo": "centres undefined", "LdMetRS": 19.5, "Mtb heat-shock": 16.23}
{"compound": "CCOCCOC(C)C(=O)Nc1ccc2ccn(CC(=O)NC)c2c1", "stereo": "centres undefined", "LdMetRS": 13.48, "Mtb heat-shock": 0.5297}
{"compound": "Cn1ccc(CN2CCC(CC(=O)N3CCCC3)CC2)cc1=O", "LdMetRS": 20.77, "Mtb heat-shock": 0.3607}
{"compound": "Cc1ccsc1CNC(=O)c1ccc(N2CCNC2=O)cc1", "LdMetRS": 15.75, "Mtb heat-shock": -8.574}
{"compound": "CC(C)C1CN(C(=O)c2cn3ccccc3n2)CCCN1CC1CC1", "stereo": "centres undefined", "LdMetRS": 20, "Mtb heat-shock": -21.43}
{"compound": "Cc1ccc(CN(CCCN(C)C)Cc2cnc(C)n2C)o1.O=C(O)CC(O)(CC(=O)O)C(=O)O", "Mtb heat-shock": 12.38}
{"compound": "CCN(CC)CC(=O)N1CCN(CCc2ccncc2)CC1", "LdMetRS": 7.554, "Mtb heat-shock": -28.97}
{"compound": "CCn1ncc2c1C(COC)CN(Cc1ccsc1)C2", "stereo": "centres undefined", "LdMetRS": 7.063, "Mtb heat-shock": -11.32}
{"compound": "CCNC(=O)CN1CCSC2(CCCCC2)C1", "LdMetRS": 10.09, "Mtb heat-shock": -5.368}
{"compound": "COc1ccc2c(c1)CCCN2C(=O)CN1CCOC(C)C1", "stereo": "centres undefined", "LdMetRS": 1.985, "Mtb heat-shock": 15.94}
{"compound": "COc1ccc(NC(=O)NC(C)(C)c2noc(C)n2)cc1", "LdMetRS": 9.36, "Mtb heat-shock": 7.678}
{"compound": "CC(C)(C)c1ncc(C(=O)NCCNC(=O)c2ccco2)s1", "LdMetRS": 10.89, "Mtb heat-shock": 6.76}
{"compound": "Cc1occc1C(=O)N1CCO[C@H]2[C@H](Oc3cccnc3)CC[C@@H]21", "LdMetRS": 3.846}
{"compound": "O=C(COc1ccc(C(F)(F)F)cc1)NS(=O)(=O)c1cccnc1", "LdMetRS": 10.2, "Mtb heat-shock": -13.29}
{"compound": "O=C(NCCn1cccc1)C(c1ccccc1)N1CCCC1", "stereo": "centres undefined", "LdMetRS": 14.72, "Mtb heat-shock": 12.45}
{"compound": "CN1CC2(CCCN(Cc3cccc(Oc4ccccc4)c3)C2)OC1=O", "stereo": "centres undefined", "LdMetRS": 8.309, "Mtb heat-shock": -13.28}
{"compound": "Cc1ccc2nccc(C(=O)N3CCOC(CCN(C)C)C3)c2c1", "stereo": "centres undefined", "LdMetRS": 3.553, "Mtb heat-shock": -17.51}

Source: ChEMBL document CHEMBL3988442, “University of Dundee, Small-Polar-MMV Screening Library” (2021).